Laboratory results published in PubChem BioAssay AID1794845 (National Center for Advancing Translational Sciences (NCATS), 2023).
Among all 6,900 compounds or so, fewer than 10 were called active. Calls follow the shape of the dose curve; as a rule, active = well fitted curve in the direction sought with a large enough effect; inconclusive = small, poorly fitted or top-dose-only effect, or another doubt; inactive = no such curve, though single readings can be large or run the other way. The list shows a part of the results.

By UniProt entry, the sequences of proteins in these tests, tags left out. Where a name states a change or a piece, a line headed by the entry shows the natural chain unless it says otherwise.
UniProt C7C422: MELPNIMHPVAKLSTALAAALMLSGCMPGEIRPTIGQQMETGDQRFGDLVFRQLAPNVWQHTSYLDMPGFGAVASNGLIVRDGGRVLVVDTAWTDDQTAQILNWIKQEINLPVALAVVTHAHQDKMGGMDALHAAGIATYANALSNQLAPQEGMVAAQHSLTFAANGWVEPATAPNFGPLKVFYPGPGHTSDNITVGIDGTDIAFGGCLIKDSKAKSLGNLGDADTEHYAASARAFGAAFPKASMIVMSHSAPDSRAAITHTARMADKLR

target: Metallo-beta-lactamase type 2 (Klebsiella pneumoniae) (UniProt C7C422); test: qHTS to identify inhibitors of the New Delhi Metallo-beta-lactamase (NDM): primary screen against the NCATS Gemini Collection; conditions: NDM-1 enzyme, meropenem hydrolysis, absorbance 300 nm; at 38.4 µM (top of the series) unless noted; also: % of control where 0% means no effect
Source text: Assay Submitter (PI): James Inglese Ph.D., Patricia Dranchak Ph.D., Mahesh Aitha Ph.D. Assay Development and Screening Technology Laboratory (ADST) National Center for Advancing Translational Sciences (NCATS), Rockville, MD National Institute of Health (NIH), Bethesda, Maryland The metallo-beta-lactamases (MBL) are a main antibiotic resistance mechanism evolved by bacteria. There is an urgent clinical need for MBL inhibitors to mitigate this growing threat. To support a machine-based learning study, qHTS has been used to experimentally test inhibitors identified by prediction tools.
PROTOCOL TABLE (as described by Inglese et al., 2007) SEQUENCE No. (e.g., 1, 2, 3, etc.); […] (e.g., enzyme, Incubation, Reagent, etc.); VALUE; DESCRIPTION 1; NDM-1; 4 uL of 3 nM enzyme [2 nM final] in 50 mM HEPES (pH 7.0), 1 uM […], 0.01% Tween20; Use BioRaptr to dispense into Aurora black, clear bottom low base 1536-well plates 2; Compounds; 23 nL; Use Pin Tool (Wako) to transfer DMSO control and library compounds in DMSO 3; Incubate; >30 min 4; Reagent; 2 uL of 150 uM meropenem [50 uM final] 5; Incubate; 30 min. 6; Detector; Absorbance at 300 nm (bandwidth = 5 nm, 25 flashes/well) on Tecan Infinity NOTES (numbers refer to sequence above) 1; Column 1 of each plate received assay buffer without enzyme and columns 2-48 received enzyme for a final assay concentration of 2 nM. 2; Control plate contained DMSO in columns 1, 2, 3, and 4. 3; Compound interaction with enzyme. 4; Meropenem substrate was prepared in the same assay buffer as step 1 for a final assay concentration of 50 uM and added to all wells across the assay plates. 5; Substrate interaction with enzyme, plateau phase of kinetics. 6; Default reader settings were applied for absorbance read at 300 nm, bandwidth = 5 nm, 25 flashes/well. References: Inglese J, Shamu CE, Guy RK. 2007. Reporting data from high-throughput screening of small-molecule libraries. Nat Chem Biol. doi:10.1038/nchembio0807-438 Yasgar A, Shinn P, Jadhav A, Auld D, Michael S, Zheng W, Austin CP, Inglese J, Simeonov A. 2008. Compound Management for Quantitative High-Throughput Screening. J Lab Autom 13:79 - 89. doi:10.1016/j.jala.2007.12.004

Activity % (negative = inhibition), inactive:
COc1ccc(CC(=O)N2C[C@@H](C(=O)O)[C@H](c3ccccc3)C2)c(OC)c1 -10.9%
CNC(=O)[C@@H]1C[C@@H](O)CN1C1CCN(C(=O)CCc2nc3ccccc3s2)CC1 -1.22%
COCC(=O)NC1(Cc2cc(-c3ccc(OC)cc3)on2)COC1 10.3% [at 57.5 µM]
CCc1ccc(NC(=O)Cn2nc3n(c2=O)CCCC3)cc1 -0.266%
CNC(=O)[C@@H]1CN(C(=O)Cn2nc(C(F)(F)F)cc2C)C[C@H]1CO 55.8%
CC(C)CN1C(=O)N(Cc2ccccn2)C(=O)C12CCN(Cc1ccc3c(c1)CCO3)CC2 8.1%
O=C(CC1COCCN1)N1CCC2(CCC(=O)N(CCc3ccccc3)C2)CC1 (centres undefined) 9.68%
CSc1nccc(N2CCC(c3nccn3Cc3cccnc3)CC2)n1 0.802%
Cc1cnc(CC2CCCN(C(=O)N(C)C)C2)n1C(C)C (centres undefined) 0.126%
COCCN1C(=O)[C@H]2CN(Cc3ccc(C)s3)C[C@H]2C1=O -0.313%
c1ccc(-c2noc(CC3CCOC4(CCN(Cc5cccnc5)CC4)C3)n2)cc1 (centres undefined) 28.6%
CCCC1(CO)CCCN(CC(=O)NC(C)(C)CC)C1 (centres undefined) 3.11%
O=C(NCc1cc2n(n1)CCCNC2)c1ccc(Cn2cnnn2)cc1 1.78%
CN(Cc1ccccc1)Cc1cn([C@H]2CO[C@H]3[C@@H]2OC[C@@H]3NCc2ccccc2)nn1 8.03% [at 57.5 µM]
CN(C)CCN1CC2(CCN(C(=O)CCCS(N)(=O)=O)CC2)OC1=O -0.482%
O=C(NCCc1ccc(F)cc1)c1cc(CN2CCOCC2)on1 -0.279%
Cc1cccc(C(=O)N2CCCCCCN(C)C(=O)[C@@H]3CCC[C@@H]32)c1 16.9%
CN(Cc1ccno1)Cc1cn(C)nc1-c1ccc(C2CCCCC2)cc1 1.48%
COc1cccc(CN[C@H]2[C@H](O)[C@H](O)C[C@@H]2c2ccc(N3CCOCC3)nc2)c1 -4.89% [at 57.5 µM]
CN1CCCCCCN(C(=O)c2cc(CN3CCOCC3)on2)[C@H]2CCC[C@H]2C1=O 3.95%
CN(c1cc(=O)c2ccnc(-c3cncnc3)c2o1)C1CCOCC1 24% [at 57.5 µM]
O=C1CC(c2noc(COc3ccccc3)n2)CN1C1CCCCC1 (centres undefined) 9.88%
O=C1CCCCC(C(=O)N2CCOCC2)N1 (centres undefined) -1.86%
CC(C)NC(=O)C1CCCN1c1nc2ncccc2o1 (centres undefined) 21.4% [at 57.5 µM]

6 structures out of the list, arranged by molar mass, ascending:
Activity % (negative = inhibition), inactive:
CC(C)NC(=O)C1CCCN1c1nc2ncccc2o1 (centres undefined) 21.4% [at 57.5 µM]
CCCC1(CO)CCCN(CC(=O)NC(C)(C)CC)C1 (centres undefined) 3.11%
Cc1cnc(CC2CCCN(C(=O)N(C)C)C2)n1C(C)C (centres undefined) 0.126%
CN(c1cc(=O)c2ccnc(-c3cncnc3)c2o1)C1CCOCC1 24% [at 57.5 µM]
CNC(=O)[C@@H]1C[C@@H](O)CN1C1CCN(C(=O)CCc2nc3ccccc3s2)CC1 -1.22%
CN(Cc1ccccc1)Cc1cn([C@H]2CO[C@H]3[C@@H]2OC[C@@H]3NCc2ccccc2)nn1 8.03% [at 57.5 µM]
